# Library screen at single concentrations

By UniProt entry, the sequences of proteins in these tests, tags left out. Residues count along the entry.
UniProt I6X8D2, whole entry: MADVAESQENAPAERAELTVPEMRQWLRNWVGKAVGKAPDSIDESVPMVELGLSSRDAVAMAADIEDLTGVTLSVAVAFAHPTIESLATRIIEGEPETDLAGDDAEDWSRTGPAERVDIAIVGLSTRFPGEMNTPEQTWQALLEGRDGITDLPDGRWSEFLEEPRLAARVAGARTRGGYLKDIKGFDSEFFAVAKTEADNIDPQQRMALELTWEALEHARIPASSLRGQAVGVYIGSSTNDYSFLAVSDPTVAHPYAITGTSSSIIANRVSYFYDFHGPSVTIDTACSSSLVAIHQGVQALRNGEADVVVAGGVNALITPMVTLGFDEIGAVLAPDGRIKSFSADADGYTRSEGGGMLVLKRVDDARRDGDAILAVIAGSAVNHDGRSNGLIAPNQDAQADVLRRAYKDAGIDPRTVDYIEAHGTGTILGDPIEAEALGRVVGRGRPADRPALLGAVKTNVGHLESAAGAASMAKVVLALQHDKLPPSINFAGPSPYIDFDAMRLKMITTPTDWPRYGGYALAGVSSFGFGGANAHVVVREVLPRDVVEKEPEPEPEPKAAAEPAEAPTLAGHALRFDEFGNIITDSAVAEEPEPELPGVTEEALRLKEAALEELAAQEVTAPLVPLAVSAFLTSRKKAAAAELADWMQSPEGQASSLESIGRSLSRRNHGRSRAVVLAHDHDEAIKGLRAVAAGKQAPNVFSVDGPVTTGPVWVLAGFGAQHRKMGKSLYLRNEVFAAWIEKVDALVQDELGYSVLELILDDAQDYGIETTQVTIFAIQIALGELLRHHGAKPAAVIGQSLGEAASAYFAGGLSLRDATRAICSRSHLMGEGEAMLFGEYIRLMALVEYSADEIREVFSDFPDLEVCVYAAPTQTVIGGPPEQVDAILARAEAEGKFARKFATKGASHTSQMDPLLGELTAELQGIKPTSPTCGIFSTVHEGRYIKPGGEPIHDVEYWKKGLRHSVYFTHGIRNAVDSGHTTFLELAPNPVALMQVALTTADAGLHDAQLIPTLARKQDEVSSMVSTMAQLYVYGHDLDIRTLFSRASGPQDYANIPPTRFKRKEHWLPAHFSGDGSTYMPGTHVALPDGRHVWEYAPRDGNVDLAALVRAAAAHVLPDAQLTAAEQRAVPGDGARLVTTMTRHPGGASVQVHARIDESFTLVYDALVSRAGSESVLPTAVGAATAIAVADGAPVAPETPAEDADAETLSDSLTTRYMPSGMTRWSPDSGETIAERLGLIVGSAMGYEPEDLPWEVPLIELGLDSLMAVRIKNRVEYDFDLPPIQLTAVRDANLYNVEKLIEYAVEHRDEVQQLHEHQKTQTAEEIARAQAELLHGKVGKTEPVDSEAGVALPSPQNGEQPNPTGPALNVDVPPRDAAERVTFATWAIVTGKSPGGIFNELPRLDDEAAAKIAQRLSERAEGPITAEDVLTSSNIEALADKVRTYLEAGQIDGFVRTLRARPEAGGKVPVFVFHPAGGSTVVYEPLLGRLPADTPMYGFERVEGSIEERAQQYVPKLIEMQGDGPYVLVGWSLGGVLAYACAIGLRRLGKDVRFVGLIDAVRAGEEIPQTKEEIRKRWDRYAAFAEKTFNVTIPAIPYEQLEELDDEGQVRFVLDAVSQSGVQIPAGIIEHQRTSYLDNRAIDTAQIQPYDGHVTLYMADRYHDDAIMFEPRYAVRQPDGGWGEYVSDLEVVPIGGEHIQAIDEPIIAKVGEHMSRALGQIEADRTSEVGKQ
UniProt A4I591, 1-473: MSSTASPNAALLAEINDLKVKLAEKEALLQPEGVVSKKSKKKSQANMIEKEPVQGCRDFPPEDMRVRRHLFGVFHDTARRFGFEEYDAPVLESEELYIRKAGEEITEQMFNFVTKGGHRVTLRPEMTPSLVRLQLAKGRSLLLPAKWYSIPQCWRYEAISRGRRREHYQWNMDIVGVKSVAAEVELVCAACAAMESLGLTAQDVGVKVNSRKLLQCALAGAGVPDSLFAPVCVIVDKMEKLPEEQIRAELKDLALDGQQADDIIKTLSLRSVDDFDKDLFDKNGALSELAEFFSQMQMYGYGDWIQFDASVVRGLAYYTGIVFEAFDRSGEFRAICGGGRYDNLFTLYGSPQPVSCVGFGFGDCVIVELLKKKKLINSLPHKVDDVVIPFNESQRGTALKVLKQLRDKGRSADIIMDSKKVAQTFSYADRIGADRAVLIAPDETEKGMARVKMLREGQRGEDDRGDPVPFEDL

From ChEMBL document CHEMBL3988442, “University of Dundee, Small-Polar-MMV Screening Library” (2021).

Pks13 thioesterase: 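Enzyme assay of the thioesterase domain of polyketide synthase 13; the read-out is not stated. Target: Polyketide synthase Pks13, Mycobacterium tuberculosis (UniProt I6X8D2). Tested at 30 µM. Higher reads as stronger inhibition (inferred from which compounds were picked for retests). Of about 67,000 compounds tested this way, about 300 (0.46%) reached 50% or more in at least one test.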
LiHisRS: 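Enzyme assay of histidyl-tRNA synthetase; the read-out is not stated. Target: Histidine-tRNA ligase, Leishmania infantum (UniProt A4I591). Concentration: 30 µM. Higher reads as stronger inhibition (inferred: compounds with an IC50 in retests scored well above the rest). The assay is labelled LdHisRS but filed under L. infantum. About 69,000 compounds were tested under these conditions; 0.6% (about 410) showed 50% or more at least once.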

Values are the deposited “Percent Effect”, in %.
The controls that fix the scale are not given in the record; negative values are as filed.
This is an unselected part of the compounds tested.

* Cc1ccc(CN2CCc3ncnc(C4CC4)c3CC2)s1 | LiHisRS: 7.547%
* Cn1cc(-c2ccc(C3CCCCN3Cc3cccnc3)cn2)cn1 (stereo not drawn) | Pks13 thioesterase: 4.349%; LiHisRS: 17.14%
* O=C(O)C1c2nc[nH]c2CCN1Cc1cc(-c2ccccc2)no1 (stereo not drawn) | Pks13 thioesterase: -11.17%; LiHisRS: 19.2%
* COc1ncnc2c1CCN(Cc1nccs1)CC2 | Pks13 thioesterase: -25.25%; LiHisRS: 10.53%
* N#CC1(C(=O)N2CCC(Nc3cccnn3)CC2)CCCCC1 | Pks13 thioesterase: -12.6%; LiHisRS: 21.92%
* CN1CC2(CCN(C(=O)CCc3nc4cccnc4n3C)C2)OC1=O (stereo not drawn) | Pks13 thioesterase: -5.695%; LiHisRS: 3.279%
* CC(C(=O)NCc1ccnc(N2CCCC2)c1)n1cncn1 (stereo not drawn) | Pks13 thioesterase: 3.843%; LiHisRS: 21.6%
* CN1CCCC(c2cccc(-c3cccc(Cl)c3)n2)C1 (stereo not drawn) | Pks13 thioesterase: -16.93%; LiHisRS: 5.674%
* Cc1nnc(C2Cc3ccccc3CN2Cc2nc(C3CC3)no2)o1 (stereo not drawn) | Pks13 thioesterase: 5.014%; LiHisRS: 14.29%
* Cc1cc(CS(=O)(=O)C(C)C(=O)N(C)c2ccccc2)on1 (stereo not drawn) | LiHisRS: 24.69%
* Cc1cc(NC(=O)CN(c2ccccc2)C(C)C)on1 | Pks13 thioesterase: -52.7%; LiHisRS: 15.05%
* Cc1cc(C)c(N(CC(O)CNCc2ccccc2)S(C)(=O)=O)c(C)c1 (stereo not drawn) | Pks13 thioesterase: 5.341%; LiHisRS: 28.26%
* COc1cc(C(C)=O)ccc1SCC(=O)Nc1ccc(C)cn1 | Pks13 thioesterase: -37.64%; LiHisRS: 15.83%
* Cn1cccc1C(=O)N1CCCN(CCCc2ccccc2)CC1 | Pks13 thioesterase: -20.76%; LiHisRS: 20.95%
* CC(=O)Nc1c(C)noc1/C=C\c1ccc(C)c(S(=O)(=O)NC2CC2)c1 | Pks13 thioesterase: -346.5%; LiHisRS: 2.74%
* CC(=O)N1CCCC(c2ccc(Cc3ccccc3)cn2)C1 (stereo not drawn) | Pks13 thioesterase: -5.358%; LiHisRS: 28%
* Cc1cccc(CN2CCC3(CCCN(C(=O)c4ccsc4)C3)C2=O)n1 (stereo not drawn) | Pks13 thioesterase: -5.025%; LiHisRS: 12.62%
* CCN(CC)CCNC(=O)c1cc(OC)c2ccoc2c1 | Pks13 thioesterase: -11.54%; LiHisRS: 14.29%
* COc1cc(CNc2cc(-c3nncn3C)ccn2)cc(OC)c1OC | Pks13 thioesterase: -4.6%; LiHisRS: 18.92%
* CN(Cc1ccno1)c1nc(C2CCCC2)nc2c1cnn2C | Pks13 thioesterase: -4.62%; LiHisRS: 22.47%
* Nc1ncc2c(n1)CN(C1CCCC1)C2=O | Pks13 thioesterase: -16.51%; LiHisRS: 33.02%
* Cn1cc(C(=O)NCc2cn3c(n2)CN(CC2CCOCC2)CC3)cn1 | Pks13 thioesterase: 3.74%; LiHisRS: 13.46%
* Cc1ccc(NC2CCN(C(=O)c3c(C)noc3C)CC2)nn1 | Pks13 thioesterase: -18.06%; LiHisRS: 28%
* CSCCC(=O)N1CCN(CC(O)C(C)(C)C)CC1 (stereo not drawn) | Pks13 thioesterase: -27.54%; LiHisRS: 13.73%
* Cn1nccc1CN1CCCC(COc2ccccc2F)C1 (stereo not drawn) | Pks13 thioesterase: 18.44%; LiHisRS: 9.929%
* COc1ccccc1C(=O)N1C[C@@H]2CCCCN(CC(N)=O)[C@@H]2C1 | Pks13 thioesterase: -241.2%; LiHisRS: 9.929%
* COCCN1C(=O)CO[C@H]2CN(Cc3cccc(OC)c3F)C[C@@H]21 | Pks13 thioesterase: 8.879%; LiHisRS: 8.247%
* CCOc1cc(C(=O)NS(C)(=O)=O)cc(-c2ccccc2)c1OC | LiHisRS: 15.52%
* Cc1ccsc1C(Cc1ccccc1)NC(=O)CSCC(N)=O (stereo not drawn) | Pks13 thioesterase: -5.634%; LiHisRS: 19.18%
* CNC(=O)c1ccc(CNCc2ccc(SC)c(OC)c2)cc1 | Pks13 thioesterase: -15.74%; LiHisRS: -3.03%
* CC(=O)N1CCN([C@@H]2CC[C@@H](NC(=O)c3ccc(C)nc3)[C@H]2O)CC1 | Pks13 thioesterase: 0.3127%; LiHisRS: 8.247%
* CC(=O)N1CC(=O)N(c2cnn(C)c2)CC12CCN(Cc1ccsc1)C2 (stereo not drawn) | Pks13 thioesterase: -4.618%; LiHisRS: 3.846%
* Cn1cc(CN2CCc3nc(-c4ccccn4)nc(O)c3C2)cn1 | Pks13 thioesterase: 6.01%; LiHisRS: 13.87%
* CC(=O)N(Cc1ncc(C)o1)C1CCN(Cc2cc(C)on2)C1 (stereo not drawn) | Pks13 thioesterase: -29.8%; LiHisRS: 15.04%
* CCOCCN1CCN(Cc2cccc(C(=O)N(C)C)c2)CC1CC (stereo not drawn) | Pks13 thioesterase: -5.559%; LiHisRS: 15.52%
* O=C1OCCN1Cc1cc(C(F)(F)F)ccc1F | Pks13 thioesterase: -11.47%; LiHisRS: 14.75%
* O=C(N[C@@H]1CN(Cc2ccc(F)c(F)c2)C[C@H]1O)c1cscn1 | Pks13 thioesterase: -0.279%; LiHisRS: -1.449%
* Cc1cccc(CN(Cc2nc3c(cnn3C)c(=O)[nH]2)C2CC2)c1 | Pks13 thioesterase: -13.37%; LiHisRS: 9.649%
* COC(=O)c1cc(NC(=O)CCc2cscn2)ccc1C | Pks13 thioesterase: -40.1%; LiHisRS: 6.806%
* N#Cc1cccc(CN2C(=O)C3(CCNCC3)Nc3ccccc32)c1 | Pks13 thioesterase: -11.58%; LiHisRS: 22.12%
* CC(C)OCCSCc1nnc(-c2cccc(F)c2)o1 | Pks13 thioesterase: -10.17%; LiHisRS: 5.833%
* CSc1ccccc1C(=O)C1CCCN(Cc2ccccn2)C1 (stereo not drawn) | Pks13 thioesterase: -14.12%; LiHisRS: 11.67%
* CCn1cc(NC(=O)C2CCC(=O)N2Cc2ccco2)cn1 (stereo not drawn) | Pks13 thioesterase: -20.03%; LiHisRS: 32.26%
* CCOCC1CN(C(=O)c2ccncn2)Cc2cnn(CC)c21 (stereo not drawn) | Pks13 thioesterase: -21.42%; LiHisRS: 17.43%
* COCCN1CCC2(CCN(c3ncccn3)CC2)C1=O | Pks13 thioesterase: -45.94%; LiHisRS: 4.587%
* CN(C(=O)c1ncn2c1CN(C)S(=O)(=O)c1ccccc1-2)C1CC1 | Pks13 thioesterase: -0.7821%; LiHisRS: -9.574%
* c1ccc2oc(C3CCN(Cc4ncon4)CC3)nc2c1 | Pks13 thioesterase: -24.59%; LiHisRS: 17.65%
* CN1Cc2ccccc2CC2(CCN(C(=O)N3CCOCC3)CC2)C1=O | Pks13 thioesterase: -31.88%; LiHisRS: 5.769%

Some entries from above, unchanged:

compound	Pks13 thioesterase	LiHisRS
Cc1ccc(NC2CCN(C(=O)c3c(C)noc3C)CC2)nn1	-18.06	28
CN1CCCC(c2cccc(-c3cccc(Cl)c3)n2)C1 (stereo not drawn)	-16.93	5.674